Laboratory results as given in ChEMBL document CHEMBL4673273, “Development of autotaxin inhibitors: A series of tetrazole cinnamides” (Bioorg Med Chem Lett, 2021).

Assay: Passive Permeability of the compound across artificial membrane assessed as fraction absorbed by PAMPA assay

In the case of `Cc1nnn(Cc2cc(C(F)(F)F)ccc2/C=C/C(=O)N2CCC(C(F)(F)F)CC2)n1`, the Fa is reported as 89%.
